In all, about 33,000 sequences were measured (“E-score (-0.5 to 0.5)”: median about -0.0059, highest 2% from about 0.26 on). This is one part of the list.

We go through 109 sequences from the supplement of paper PMC3334620.

This test deals with T1, Cin5 (UniProt P40917).
T1 sequence: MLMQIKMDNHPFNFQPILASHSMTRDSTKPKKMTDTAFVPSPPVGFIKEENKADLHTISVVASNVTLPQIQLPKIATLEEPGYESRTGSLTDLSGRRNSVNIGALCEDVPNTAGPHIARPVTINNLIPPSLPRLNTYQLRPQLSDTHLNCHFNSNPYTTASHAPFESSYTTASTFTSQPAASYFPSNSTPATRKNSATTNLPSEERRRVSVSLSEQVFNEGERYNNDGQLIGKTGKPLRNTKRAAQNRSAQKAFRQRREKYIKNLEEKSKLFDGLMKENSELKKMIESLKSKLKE
Nature of the test: PBM E-score (8-mer binding enrichment) (E-score (-0.5 to 0.5)); higher = stronger / more preferred TF binding. Particulars: protein concentration: 100 nM; construct: GST-full length. On the procedure:
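Universal 'all 10-mer' protein binding microarrays (Agilent AMADID 015681) probed with GST-tagged S. cerevisiae TFs (full-length or DBD) made by in vitro transcription/translation (PURExpress), about 100-200 nM. Bound TF was detected with fluorescent anti-GST. Each ungapped 8-mer (which stands for itself and its reverse complement) is scored by the PBM enrichment score (E-score), a modified Wilcoxon-Mann-Whitney statistic from -0.5 to +0.5, computed with the Universal PBM Analysis Suite. Scale: above 0.35 generally sequence-specific binding.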
Turning to ATTCCATA, the “PBM E-score” value amounted to 0.194.

As for AAACTCAG, the “PBM E-score” value is -0.0077.

On to CGCCCGAA, for which the “PBM E-score” value is -0.0087.

Regarding CCACCATC, the “PBM E-score” value was -0.0751.

In the case of CCTCAGTC, the “PBM E-score” value is -0.114.

As to CTTCAACA, the “PBM E-score” value is 0.16.

For the sequence GATGAAAA, the “PBM E-score” value worked out at 0.0605.

AGGGCGCG: the “PBM E-score” value is -0.168.

Consider AGCAATTC, for which the “PBM E-score” value amounted to 0.0771.

For AAATGCTC, the “PBM E-score” value was 0.093.

As to CTTCTTAA, the “PBM E-score” value was 0.0253.

As to TGGGCTAA, the “PBM E-score” value was 0.0236.

In the case of AACGGTCG, the “PBM E-score” value came to 0.00792.

On to CCTCGGCG, for which the “PBM E-score” value was found to be 0.152.

As to AGGAGCCC, the “PBM E-score” value was -0.136.

As for AAGTCGAC, the “PBM E-score” value came out at 0.184.

For the sequence AAAACACA, the “PBM E-score” value came out at 0.00626.

Regarding AAAAAAAG, the “PBM E-score” value was found to be 0.0425.

For the sequence CAACGGTG, the “PBM E-score” value was -0.229.

With ATGCAGCA, the “PBM E-score” value turned out to be 0.0223.

Take CACCGCGA: the “PBM E-score” value was -0.103.

Take ACGTCAAT: the “PBM E-score” value came to 0.0317.

On to AAAATTTC, for which the “PBM E-score” value was -0.0551.

With ACGGGGTG, the “PBM E-score” value turned out to be 0.0866.

AGATTGGG: the “PBM E-score” value was 0.175.

CCTTCACC: the “PBM E-score” value is -0.195.

TGAATTAA: the “PBM E-score” value turned out to be 0.231.

For the sequence AGGAATTC, the “PBM E-score” value is -0.0774.

Take AAAACGCT: the “PBM E-score” value was -0.12.

For the sequence CAACTATA, the “PBM E-score” value is -0.00786.

As for ACCGTCCA, the “PBM E-score” value is 0.0127.

For CGACGGCC, the “PBM E-score” value was -0.0787.

For ACGAGCCG, the “PBM E-score” value is -0.0609.

ACAAGCTA: the “PBM E-score” value is -0.0521.

Turning to ACTAGGTC, the “PBM E-score” value stood at 0.0478.

Take GATCGCCC: the “PBM E-score” value was -0.0277.

On to ATTACCCA, for which the “PBM E-score” value is 0.213.

As to CGATTTAC, the “PBM E-score” value was found to be 0.0397.

Turning to AATGTTTA, the “PBM E-score” value was -0.00999.

TCTTATCA: the “PBM E-score” value was 0.196.

As to ATCCCCAA, the “PBM E-score” value worked out at 0.231.

On to CGACTATC, for which the “PBM E-score” value is -0.0747.

Take ATAGAAAT: the “PBM E-score” value was 0.206.

For AGTGATTA, the “PBM E-score” value is 0.275.

For AATCTGAC, the “PBM E-score” value came to 0.104.

CCCTCCGA: the “PBM E-score” value was -0.138.

Consider GGCTCTCA, for which the “PBM E-score” value is -0.265.

Turning to CATACTTA, the “PBM E-score” value turned out to be 0.0207.

Take CAAGTCTA: the “PBM E-score” value was -0.202.

As to TAGGGCGA, the “PBM E-score” value was -0.0105.

In the case of CCTGGTCC, the “PBM E-score” value was -0.0835.

As for TAATGAGA, the “PBM E-score” value was 0.0551.

For the sequence CCTATTCG, the “PBM E-score” value was -0.0618.

For CTCTGATA, the “PBM E-score” value came out at 0.00455.

Regarding CGCGCAGC, the “PBM E-score” value is -0.169.

With AAGATCAG, the “PBM E-score” value was -0.103.

Regarding ACTCGGTA, the “PBM E-score” value was 0.00378.

As to TAGCCCTA, the “PBM E-score” value is -0.129.

As to CTGTGTCC, the “PBM E-score” value was -0.119.

As for CTTTTCTC, the “PBM E-score” value was -0.025.

ACTCTAGC: the “PBM E-score” value was -0.211.

As to AAAGTCGA, the “PBM E-score” value was -0.024.

Take GAGCACGC: the “PBM E-score” value is -0.0491.

Consider AATCATAC, for which the “PBM E-score” value worked out at 0.206.

Turning to AACACGCT, the “PBM E-score” value worked out at 0.0254.

Regarding ACCGTCTA, the “PBM E-score” value is -0.157.

Regarding GTCCCGAA, the “PBM E-score” value was -0.145.

In the case of AAGACACA, the “PBM E-score” value is -0.0535.

Consider AAATATCT, for which the “PBM E-score” value came to 0.155.

As for CAGCATGA, the “PBM E-score” value was -0.0456.

In the case of ACCGGGTA, the “PBM E-score” value is -0.0534.

Consider GCTCACAA, for which the “PBM E-score” value is 0.03.

On to ATATATAT, for which the “PBM E-score” value amounted to 0.146.

For ATATCAAC, the “PBM E-score” value came out at 0.144.

On to CTAGGCTC, for which the “PBM E-score” value was -0.367.

For the sequence ACCGCGTG, the “PBM E-score” value was -0.186.

For CGTCCAAC, the “PBM E-score” value is -0.11.

As to CGATGTCA, the “PBM E-score” value was -0.00486.

Regarding ACGTCTCT, the “PBM E-score” value was -0.0284.

For AACGCTAG, the “PBM E-score” value was -0.225.

Regarding CCATCATC, the “PBM E-score” value came to 0.0863.

AGAACGAG: the “PBM E-score” value was 0.0109.

TCCAGGCA: the “PBM E-score” value was -0.0563.

For GTGCCCAC, the “PBM E-score” value is -0.128.

Take CCAAGTAA: the “PBM E-score” value stood at 0.145.

As to CTTTTAGA, the “PBM E-score” value was -0.0224.

As to GACGAGTA, the “PBM E-score” value worked out at 0.0712.

As to AGAGTTAT, the “PBM E-score” value is 0.217.

Take GACACAGC: the “PBM E-score” value was -0.0691.

As to CCCCCGCC, the “PBM E-score” value is -0.349.

In the case of AAACCGGA, the “PBM E-score” value stood at 0.101.

For the sequence CCGTCCTC, the “PBM E-score” value is -0.197.

As for AACCTTTA, the “PBM E-score” value is -0.0683.

Regarding CTTACGGC, the “PBM E-score” value turned out to be 0.0357.

Take CTGGCGCA: the “PBM E-score” value is -0.194.

For GCTTTGCA, the “PBM E-score” value is -0.21.

As for AACACCCC, the “PBM E-score” value was -0.128.

In the case of CACCCGCC, the “PBM E-score” value came to 0.152.

GAAAAACA: the “PBM E-score” value is -0.0228.

Consider CGGGAAGC, for which the “PBM E-score” value was 0.00431.

For GGAACTAC, the “PBM E-score” value was -0.00634.

As to ACCTCAAA, the “PBM E-score” value turned out to be 0.027.

Turning to CCCTGGCA, the “PBM E-score” value was -0.229.

TAGGAGGA: the “PBM E-score” value is -0.142.

On to ACTTACGA, for which the “PBM E-score” value worked out at 0.207.

Consider AGGGTGGA, for which the “PBM E-score” value was -0.0449.

On to ATAGTATG, for which the “PBM E-score” value turned out to be 0.169.

Turning to ATAACCTC, the “PBM E-score” value amounted to 0.00091.

In the case of CAGTGTAG, the “PBM E-score” value is 0.0229.
